± gives the standard deviation of the averaged measurements. This is a selection; strong and weak results do not stand in their true shares. Most values lie at the level of the controls, where differences are scatter.

Amino acid sequences for entries named in this document (tags omitted). A change or cut given only in a name is not applied to a line headed by its entry.
UniProt Q00266: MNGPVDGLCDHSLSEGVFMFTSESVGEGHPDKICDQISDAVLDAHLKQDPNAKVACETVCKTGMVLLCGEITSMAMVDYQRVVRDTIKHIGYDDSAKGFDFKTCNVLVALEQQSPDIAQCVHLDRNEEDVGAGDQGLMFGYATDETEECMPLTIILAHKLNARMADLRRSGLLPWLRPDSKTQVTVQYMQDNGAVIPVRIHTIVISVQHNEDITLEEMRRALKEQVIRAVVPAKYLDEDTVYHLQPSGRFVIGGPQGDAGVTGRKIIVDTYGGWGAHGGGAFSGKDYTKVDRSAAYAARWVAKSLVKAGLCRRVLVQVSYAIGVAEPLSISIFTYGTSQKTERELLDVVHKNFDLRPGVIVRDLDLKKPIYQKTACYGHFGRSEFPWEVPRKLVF
UniProt Q00325: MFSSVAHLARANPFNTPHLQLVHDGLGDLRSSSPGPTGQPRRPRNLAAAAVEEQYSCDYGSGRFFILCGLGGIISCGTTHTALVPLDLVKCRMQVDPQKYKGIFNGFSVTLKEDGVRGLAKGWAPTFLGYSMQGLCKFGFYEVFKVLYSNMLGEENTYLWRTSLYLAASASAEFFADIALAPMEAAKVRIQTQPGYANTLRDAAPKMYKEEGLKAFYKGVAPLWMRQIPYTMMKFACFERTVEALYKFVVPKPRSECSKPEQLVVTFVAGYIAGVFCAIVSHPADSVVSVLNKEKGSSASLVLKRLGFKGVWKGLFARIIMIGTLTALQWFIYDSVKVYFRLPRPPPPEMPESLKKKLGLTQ
UniProt Q01581: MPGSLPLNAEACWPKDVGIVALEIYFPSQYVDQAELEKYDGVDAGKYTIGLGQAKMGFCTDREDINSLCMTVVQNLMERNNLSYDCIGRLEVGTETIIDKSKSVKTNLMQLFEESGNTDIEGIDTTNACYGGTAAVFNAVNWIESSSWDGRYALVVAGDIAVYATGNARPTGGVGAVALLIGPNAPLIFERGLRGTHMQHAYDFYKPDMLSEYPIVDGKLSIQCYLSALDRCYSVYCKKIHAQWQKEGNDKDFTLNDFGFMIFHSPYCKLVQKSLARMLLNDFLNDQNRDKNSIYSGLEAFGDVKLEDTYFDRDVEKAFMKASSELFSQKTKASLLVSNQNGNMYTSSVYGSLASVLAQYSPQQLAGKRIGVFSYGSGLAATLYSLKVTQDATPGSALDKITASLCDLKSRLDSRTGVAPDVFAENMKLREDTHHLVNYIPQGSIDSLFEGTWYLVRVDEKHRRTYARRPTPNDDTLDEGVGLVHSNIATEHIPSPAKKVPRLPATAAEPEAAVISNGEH
UniProt P84090, whole entry, looked up: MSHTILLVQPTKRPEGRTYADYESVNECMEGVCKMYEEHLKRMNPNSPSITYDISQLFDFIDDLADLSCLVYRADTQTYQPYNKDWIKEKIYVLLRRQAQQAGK
UniProt P60520, whole entry: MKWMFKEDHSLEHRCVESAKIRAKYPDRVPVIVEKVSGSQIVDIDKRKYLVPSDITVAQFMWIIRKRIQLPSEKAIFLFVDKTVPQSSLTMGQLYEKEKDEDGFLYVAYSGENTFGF
UniProt P57088: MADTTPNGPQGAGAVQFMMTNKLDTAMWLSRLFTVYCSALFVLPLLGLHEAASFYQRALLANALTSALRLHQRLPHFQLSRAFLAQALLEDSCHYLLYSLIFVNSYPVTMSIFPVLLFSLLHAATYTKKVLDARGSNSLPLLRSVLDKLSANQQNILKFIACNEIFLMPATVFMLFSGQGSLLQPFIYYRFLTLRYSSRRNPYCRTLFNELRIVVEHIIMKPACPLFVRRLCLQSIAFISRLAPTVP
UniProt P83876: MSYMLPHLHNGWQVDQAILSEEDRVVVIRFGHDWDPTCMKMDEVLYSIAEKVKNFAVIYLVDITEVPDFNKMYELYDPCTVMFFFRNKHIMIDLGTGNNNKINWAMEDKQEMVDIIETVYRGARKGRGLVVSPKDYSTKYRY
UniProt Q06547, whole entry: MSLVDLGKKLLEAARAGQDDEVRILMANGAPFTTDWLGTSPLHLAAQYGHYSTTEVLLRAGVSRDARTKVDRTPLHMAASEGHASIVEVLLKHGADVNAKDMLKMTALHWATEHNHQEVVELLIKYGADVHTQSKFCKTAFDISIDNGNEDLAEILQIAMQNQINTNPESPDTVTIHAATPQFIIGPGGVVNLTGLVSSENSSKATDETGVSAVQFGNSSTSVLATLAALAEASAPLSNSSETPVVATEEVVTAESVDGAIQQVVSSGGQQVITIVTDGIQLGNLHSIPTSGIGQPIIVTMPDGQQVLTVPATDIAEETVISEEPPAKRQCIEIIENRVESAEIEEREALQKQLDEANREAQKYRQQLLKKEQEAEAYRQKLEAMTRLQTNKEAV
UniProt Q01543: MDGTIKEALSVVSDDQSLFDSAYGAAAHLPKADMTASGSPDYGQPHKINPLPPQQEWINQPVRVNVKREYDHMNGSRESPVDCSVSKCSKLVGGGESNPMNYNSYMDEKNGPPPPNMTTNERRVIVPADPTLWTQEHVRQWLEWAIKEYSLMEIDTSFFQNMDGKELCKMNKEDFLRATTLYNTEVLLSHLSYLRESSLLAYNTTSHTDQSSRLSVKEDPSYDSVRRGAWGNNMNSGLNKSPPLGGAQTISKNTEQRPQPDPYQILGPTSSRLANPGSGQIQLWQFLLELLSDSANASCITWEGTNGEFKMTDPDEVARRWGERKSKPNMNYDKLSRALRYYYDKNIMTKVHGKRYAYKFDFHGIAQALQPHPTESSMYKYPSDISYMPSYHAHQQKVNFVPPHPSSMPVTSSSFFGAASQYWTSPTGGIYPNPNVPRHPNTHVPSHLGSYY
UniProt Q05469: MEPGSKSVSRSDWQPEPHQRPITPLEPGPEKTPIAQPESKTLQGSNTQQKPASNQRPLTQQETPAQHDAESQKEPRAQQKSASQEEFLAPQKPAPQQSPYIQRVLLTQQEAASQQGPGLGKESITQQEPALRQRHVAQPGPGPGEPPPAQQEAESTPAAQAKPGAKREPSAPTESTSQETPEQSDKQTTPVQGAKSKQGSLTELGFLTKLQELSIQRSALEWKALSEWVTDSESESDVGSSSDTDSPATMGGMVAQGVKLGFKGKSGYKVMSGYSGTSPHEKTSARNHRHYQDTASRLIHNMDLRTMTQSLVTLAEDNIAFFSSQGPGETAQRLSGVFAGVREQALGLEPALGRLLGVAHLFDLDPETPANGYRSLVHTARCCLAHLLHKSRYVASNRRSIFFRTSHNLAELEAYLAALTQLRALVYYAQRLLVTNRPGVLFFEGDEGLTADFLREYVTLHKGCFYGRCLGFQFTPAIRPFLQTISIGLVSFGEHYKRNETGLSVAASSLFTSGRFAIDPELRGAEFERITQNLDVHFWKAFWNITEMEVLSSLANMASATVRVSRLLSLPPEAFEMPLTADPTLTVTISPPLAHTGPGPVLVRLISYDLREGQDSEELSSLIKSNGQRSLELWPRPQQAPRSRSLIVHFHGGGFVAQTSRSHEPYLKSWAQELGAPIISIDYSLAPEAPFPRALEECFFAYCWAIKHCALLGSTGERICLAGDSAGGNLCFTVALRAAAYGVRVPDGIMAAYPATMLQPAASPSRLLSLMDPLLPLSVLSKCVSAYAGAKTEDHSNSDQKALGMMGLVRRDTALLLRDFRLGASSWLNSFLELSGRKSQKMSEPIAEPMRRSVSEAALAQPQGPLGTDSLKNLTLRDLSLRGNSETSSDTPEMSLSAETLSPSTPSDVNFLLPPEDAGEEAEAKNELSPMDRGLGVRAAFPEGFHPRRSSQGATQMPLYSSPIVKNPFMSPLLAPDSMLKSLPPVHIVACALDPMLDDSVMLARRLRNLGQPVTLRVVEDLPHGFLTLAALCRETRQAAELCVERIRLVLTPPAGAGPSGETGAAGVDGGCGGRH
UniProt P78536: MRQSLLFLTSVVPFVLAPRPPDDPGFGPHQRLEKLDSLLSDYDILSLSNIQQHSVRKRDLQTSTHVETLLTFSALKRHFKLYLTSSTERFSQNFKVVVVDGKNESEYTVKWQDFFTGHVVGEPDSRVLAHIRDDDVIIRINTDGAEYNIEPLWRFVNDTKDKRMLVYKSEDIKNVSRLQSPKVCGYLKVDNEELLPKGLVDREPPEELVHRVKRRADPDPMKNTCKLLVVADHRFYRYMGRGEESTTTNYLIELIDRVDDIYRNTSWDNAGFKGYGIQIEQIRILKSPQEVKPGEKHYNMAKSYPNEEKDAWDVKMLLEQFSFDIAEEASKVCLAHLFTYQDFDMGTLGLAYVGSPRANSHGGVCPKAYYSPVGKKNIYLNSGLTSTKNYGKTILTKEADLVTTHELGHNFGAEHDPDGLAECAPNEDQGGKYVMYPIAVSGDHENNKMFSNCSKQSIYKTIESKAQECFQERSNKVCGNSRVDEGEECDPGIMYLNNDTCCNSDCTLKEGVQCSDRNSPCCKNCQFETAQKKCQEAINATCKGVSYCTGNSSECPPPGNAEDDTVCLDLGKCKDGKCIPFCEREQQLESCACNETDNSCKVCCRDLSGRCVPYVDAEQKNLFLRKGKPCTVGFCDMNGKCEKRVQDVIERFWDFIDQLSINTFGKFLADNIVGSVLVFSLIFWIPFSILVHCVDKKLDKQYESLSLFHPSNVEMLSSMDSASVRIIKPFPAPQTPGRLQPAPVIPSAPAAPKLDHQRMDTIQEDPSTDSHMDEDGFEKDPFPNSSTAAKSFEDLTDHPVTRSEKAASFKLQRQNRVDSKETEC
UniProt P61962: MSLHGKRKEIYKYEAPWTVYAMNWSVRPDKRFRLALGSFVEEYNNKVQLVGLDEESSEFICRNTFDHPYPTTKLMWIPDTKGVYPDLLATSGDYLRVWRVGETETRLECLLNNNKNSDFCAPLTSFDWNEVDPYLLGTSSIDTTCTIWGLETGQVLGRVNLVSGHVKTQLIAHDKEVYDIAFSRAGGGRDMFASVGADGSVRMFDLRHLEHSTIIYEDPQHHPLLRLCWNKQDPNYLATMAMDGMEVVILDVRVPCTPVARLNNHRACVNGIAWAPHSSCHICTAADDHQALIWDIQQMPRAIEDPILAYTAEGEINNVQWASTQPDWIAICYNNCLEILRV
UniProt P61024, whole entry: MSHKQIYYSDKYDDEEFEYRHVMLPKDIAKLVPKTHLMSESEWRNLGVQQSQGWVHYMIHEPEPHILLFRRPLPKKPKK
UniProt P62879, whole entry: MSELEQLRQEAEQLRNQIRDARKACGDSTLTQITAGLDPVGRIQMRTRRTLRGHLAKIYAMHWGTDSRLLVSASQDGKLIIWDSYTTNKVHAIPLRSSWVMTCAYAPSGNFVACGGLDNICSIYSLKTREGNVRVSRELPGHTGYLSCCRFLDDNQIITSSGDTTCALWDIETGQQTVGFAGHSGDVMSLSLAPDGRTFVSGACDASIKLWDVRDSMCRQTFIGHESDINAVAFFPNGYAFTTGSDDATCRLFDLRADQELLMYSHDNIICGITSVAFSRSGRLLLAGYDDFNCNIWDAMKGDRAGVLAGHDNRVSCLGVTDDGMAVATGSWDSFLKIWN
UniProt Q02446, whole entry: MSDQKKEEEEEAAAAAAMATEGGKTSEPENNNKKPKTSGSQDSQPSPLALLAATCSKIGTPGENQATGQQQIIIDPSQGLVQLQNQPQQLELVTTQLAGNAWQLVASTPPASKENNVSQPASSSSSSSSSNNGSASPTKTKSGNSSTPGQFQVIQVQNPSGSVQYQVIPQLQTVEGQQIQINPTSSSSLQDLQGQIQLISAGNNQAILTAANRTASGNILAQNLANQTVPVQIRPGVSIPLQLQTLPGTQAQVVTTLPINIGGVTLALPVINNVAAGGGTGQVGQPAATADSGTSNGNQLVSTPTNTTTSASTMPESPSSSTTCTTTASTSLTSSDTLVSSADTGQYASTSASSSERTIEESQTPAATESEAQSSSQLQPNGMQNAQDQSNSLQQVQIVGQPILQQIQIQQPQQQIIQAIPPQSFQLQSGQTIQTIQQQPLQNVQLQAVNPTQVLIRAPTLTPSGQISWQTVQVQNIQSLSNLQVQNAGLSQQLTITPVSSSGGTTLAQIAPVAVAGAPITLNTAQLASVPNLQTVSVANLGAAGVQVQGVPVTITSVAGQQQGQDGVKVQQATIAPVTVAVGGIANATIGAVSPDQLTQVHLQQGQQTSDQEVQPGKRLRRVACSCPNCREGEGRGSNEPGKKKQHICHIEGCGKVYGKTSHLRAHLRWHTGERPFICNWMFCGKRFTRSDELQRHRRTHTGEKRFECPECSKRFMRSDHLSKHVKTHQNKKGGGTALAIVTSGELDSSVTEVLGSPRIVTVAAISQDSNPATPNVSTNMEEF
UniProt P98179: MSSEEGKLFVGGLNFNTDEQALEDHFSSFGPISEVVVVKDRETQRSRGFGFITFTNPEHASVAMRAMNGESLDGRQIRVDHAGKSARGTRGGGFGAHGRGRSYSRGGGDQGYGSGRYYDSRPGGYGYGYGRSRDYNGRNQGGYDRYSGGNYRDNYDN
UniProt P62328: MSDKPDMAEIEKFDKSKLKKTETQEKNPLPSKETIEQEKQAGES
UniProt P62942, whole entry: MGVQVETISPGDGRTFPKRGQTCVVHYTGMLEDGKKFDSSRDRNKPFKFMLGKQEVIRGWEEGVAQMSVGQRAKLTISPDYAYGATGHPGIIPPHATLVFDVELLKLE

Experimental findings from the supplement of paper PMC6411743 are described below.

Compound in this test: Nc1ncnc2c1ncn2[C@@H]1O[C@H](COP(=O)(O)OP(=O)(O)NP(=O)(O)O)[C@@H](O)[C@H]1O [adenylyl imidodiphosphate]
The experiment in a line: NP40-soluble protein abundance relative to vehicle (solubility fold change) (ratio); higher = more soluble protein in presence of AMP-PNP. The method, boiled down:
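Jurkat crude lysate (Dounce-homogenised) was treated with eight concentrations from 0.1 to 10 mM for 10 min at room temperature, then 3 min at 37 °C. It was solubilised with 0.8% NP40 and benzonase (60 min, 4 °C) and ultracentrifuged, and the supernatant was TMT-labelled for LC-MS/MS. Intensities were vsn-normalised, and the value is the fold change against the NP40-processed vehicle per replicate, from three independent experiments.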

Take UniProt P60763: the NP40-soluble protein abundance reads like this: (concentration: 0.1mM) 1.02 ± 0.089; (concentration: 0.5mM) 1.07 ± 0.038.
The matching figures for UniProt P62487: 1.04 ± 0.064 and 1.06 ± 0.087.
The matching figures for UniProt Q06136 and related entries: 0.997 ± 0.042 and 1.01 ± 0.042.
In the same order, the values of UniProt P61201 and related entries are 1.01 ± 0.032 and 1.03 ± 0.027.
Regarding UniProt Q04656 and related entries, the NP40-soluble protein abundance is, setting by setting: (concentration: 0.1mM) 0.99 ± 0.016; (concentration: 0.5mM) 0.976 ± 0.022.
In the same order, the values of UniProt Q00266 and related entries are 1.03 ± 0.044 and 0.993 ± 0.08.
In the same order, the values of UniProt P62244 are 0.999 ± 0.027 and 1.01 ± 0.059.
Turning to UniProt Q06124-2, the NP40-soluble protein abundance by setting is: (concentration: 0.1mM) 0.9743 ± 0.0074; (concentration: 0.5mM) 0.981 ± 0.0074.
UniProt Q00325 and related entries: the NP40-soluble protein abundance is 1.03 ± 0.059 (concentration: 0.1mM) and 1.02 ± 0.046 (concentration: 0.5mM).
The matching figures for RRP1 (UniProt P56182): 1.02 ± 0.011 and 1.01 ± 0.044.
For the target HMGCS1 (UniProt Q01581), the NP40-soluble protein abundance was 0.982 ± 0.023 (concentration: 0.1mM) and 0.974 ± 0.021 (concentration: 0.5mM).
In the same order, the values of UniProt P78406 and related entries are 1.02 ± 0.032 and 1.02 ± 0.018.
The matching figures for UniProt Q06265 and related entries: 1 ± 0.027 and 1.01 ± 0.025.
The matching figures for UniProt P84090: 1.01 ± 0.068 and 1.02 ± 0.074.
Take UniProt P63092 and related entries: the NP40-soluble protein abundance is, setting by setting: (concentration: 0.1mM) 1.01 ± 0.046; (concentration: 0.5mM) 0.995 ± 0.029.
As to UniProt P62633 and related entries, the NP40-soluble protein abundance by setting is: (concentration: 0.1mM) 0.982 ± 0.033; (concentration: 0.5mM) 1 ± 0.039.
RHOA (UniProt P61586): the NP40-soluble protein abundance came to 0.9868 ± 0.0093 (concentration: 0.1mM) and 1.04 ± 0.072 (concentration: 0.5mM).
In the same order, the values of UniProt P61009 are 1.06 ± 0.11 and 1.09 ± 0.12.
In the same order, the values of PFKP (UniProt Q01813) are 1.01 ± 0.026 and 1.016 ± 0.0077.
The matching figures for GTF2B (UniProt Q00403): 0.995 ± 0.034 and 0.981 ± 0.042.
On to UniProt P56159 and related entries, for which the NP40-soluble protein abundance by setting is: (concentration: 0.1mM) 0.968 ± 0.043; (concentration: 0.5mM) 1 ± 0.032.
In the same order, the values of RPL38 (UniProt P63173) are 1 ± 0.042 and 0.997 ± 0.054.
Turning to UniProt Q03001 and related entries, the NP40-soluble protein abundance (concentration: 0.1mM) came out at 0.982 ± 0.073 and the NP40-soluble protein abundance (concentration: 0.5mM) was found to be 0.988 ± 0.064.
The matching figures for UniProt Q00653 and related entries: 1.01 ± 0.0085 and 0.988 ± 0.057.
The matching figures for UniProt P60520: 0.979 ± 0.034 and 1.02 ± 0.021.
In the same order, the values of UniProt Q01082 and related entries are 0.9832 ± 0.0091 and 1.04 ± 0.029.
With TMEM33 (UniProt P57088), the NP40-soluble protein abundance reads like this: (concentration: 0.1mM) 1.01 ± 0.06; (concentration: 0.5mM) 1 ± 0.038.
The matching figures for UniProt P83876: 0.991 ± 0.023 and 0.998 ± 0.016.
In the same order, the values of UniProt P78362 and related entries are 0.935 ± 0.025 and 0.952 ± 0.018.
In the same order, the values of UniProt Q06547 and related entries are 0.986 ± 0.022 and 0.994 ± 0.068.
For FLI1 (UniProt Q01543), the NP40-soluble protein abundance runs as follows: (concentration: 0.1mM) 0.991 ± 0.016; (concentration: 0.5mM) 1.02 ± 0.05.
In the same order, the values of UniProt Q05469 and related entries are 0.999 ± 0.031 and 0.996 ± 0.029.
The matching figures for MRPS35 (UniProt P82673): 1.03 ± 0.042 and 1.04 ± 0.069.
The matching figures for UniProt Q08209 and related entries: 1.02 ± 0.014 and 1.02 ± 0.032.
Regarding MRPS5 (UniProt P82675), the NP40-soluble protein abundance reads like this: (concentration: 0.1mM) 1.03 ± 0.023; (concentration: 0.5mM) 0.979 ± 0.071.
On to RPL10A (UniProt P62906), for which the NP40-soluble protein abundance runs as follows: (concentration: 0.1mM) 1.042 ± 0.0035; (concentration: 0.5mM) 1.02 ± 0.033.
In the same order, the values of UniProt P62195 are 0.99 ± 0.029 and 0.976 ± 0.013.
In the same order, the values of ADAM17 (UniProt P78536) are 0.975 ± 0.019 and 0.994 ± 0.031.
In the same order, the values of UniProt P61086 and related entries are 0.988 ± 0.038 and 0.973 ± 0.041.
In the case of UniProt P61962, the NP40-soluble protein abundance reads like this: (concentration: 0.1mM) 1.02 ± 0.022; (concentration: 0.5mM) 1 ± 0.097.
In the same order, the values of UniProt Q02040 are 1 ± 0.041 and 0.961 ± 0.029.
The matching figures for YBEY (UniProt P58557): 1.01 ± 0.058 and 0.9967 ± 0.0094.
On to UniProt P60866 and related entries, for which the NP40-soluble protein abundance runs as follows: (concentration: 0.1mM) 1 ± 0.069; (concentration: 0.5mM) 1.02 ± 0.041.
The matching figures for UniProt P82094 and related entries: 0.993 ± 0.018 and 1 ± 0.064.
In the same order, the values of UniProt P68036 and related entries are 1 ± 0.046 and 1.06 ± 0.071.
As for EIF6 (UniProt P56537), the NP40-soluble protein abundance was 1.01 ± 0.049 (concentration: 0.1mM) and 0.985 ± 0.032 (concentration: 0.5mM).
The matching figures for UniProt P61024 and related entries: 0.986 ± 0.031 and 1 ± 0.046.
In the same order, the values of UniProt P78346 and related entries are 1.04 ± 0.046 and 0.971 ± 0.043.
The matching figures for UniProt P55884 and related entries: 1.03 ± 0.029 and 1.01 ± 0.059.
With UniProt P78347 and related entries, the NP40-soluble protein abundance (concentration: 0.1mM) was 0.999 ± 0.027 and the NP40-soluble protein abundance (concentration: 0.5mM) is 1.03 ± 0.07.
For UniProt P62879, the NP40-soluble protein abundance worked out at 0.9877 ± 0.0049 (concentration: 0.1mM) and 0.991 ± 0.059 (concentration: 0.5mM).
In the same order, the values of VBP1 (UniProt P61758) are 0.97 ± 0.089 and 0.965 ± 0.079.
The matching figures for SP4 (UniProt Q02446): 0.988 ± 0.038 and 0.99 ± 0.032.
In the same order, the values of FOXK2 (UniProt Q01167) are 1.01 ± 0.022 and 0.972 ± 0.035.
On to RBM3 (UniProt P98179), for which the NP40-soluble protein abundance is, setting by setting: (concentration: 0.1mM) 0.983 ± 0.068; (concentration: 0.5mM) 0.971 ± 0.058.
In the same order, the values of TMSB4X (UniProt P62328) are 1.01 ± 0.077 and 0.963 ± 0.095.
Consider UniProt P68371, for which the NP40-soluble protein abundance is 1.08 ± 0.16 (concentration: 0.1mM) and 0.991 ± 0.053 (concentration: 0.5mM).
The matching figures for FKBP1A (UniProt P62942): 1 ± 0.026 and 1.03 ± 0.066.
The matching figures for LRP1 (UniProt Q07954): 0.975 ± 0.014 and 0.966 ± 0.027.
In the same order, the values of ACTR3 (UniProt P61158) are 1.04 ± 0.022 and 1.01 ± 0.074.
For the target MLLT1 (UniProt Q03111), the NP40-soluble protein abundance turned out to be 0.999 ± 0.024 (concentration: 0.1mM) and 1.02 ± 0.04 (concentration: 0.5mM).
